Literature values as cited in patent publication US12502358B1, “Centanafadine multiphasic controlled-release pharmaceutical formulation” (Innovate Therapeutics LLC, priority 2024, dated 2025).
The name of at least one read-out is uncertain.

Details: per BCS classification

In the case of `c1ccc2cc([C@]34CNC[C@H]3C4)ccc2c1` [Centanafadine, (1R,5S)-1-(naphthalen-2-yl)-3-azabicyclo[3.1.0]hexane], the permeability is given as “highly permeable”.
